Assay results as given in US20080160035A1.
These are yes or no findings as the source states them, for the method shown. Some entries that bind do so weakly or less than the wild type.

The chains behind the UniProt entries cited, without tags or fusion partners. Residues count along the entry.
UniProt P24394, residues 26-232: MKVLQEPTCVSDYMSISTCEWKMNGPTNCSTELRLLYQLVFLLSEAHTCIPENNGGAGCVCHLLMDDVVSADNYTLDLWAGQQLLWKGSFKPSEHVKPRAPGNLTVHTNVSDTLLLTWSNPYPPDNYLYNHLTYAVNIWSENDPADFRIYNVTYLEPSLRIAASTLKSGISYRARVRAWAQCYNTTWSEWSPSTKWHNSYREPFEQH

Experiments:
[1] = target: monomeric hIL-4R (R&D Systems) (human) (UniProt P24394); experiment: Western blot, non-reducing SDS-PAGE
[2] = target: dimeric hIL-4R-hFc (human) (UniProt P24394); experiment: OCTET sequential binding assay, biotin-hIL-4R-hFc on streptavidin biosensors, first antibody at 50 µg/ml
[3] = target: monomeric hIL-4R (R&D Systems) (human) (UniProt P24394); experiment: Western blot, reducing SDS-PAGE
hIL-4R (human) = hIL-4R (human) (UniProt P24394); experiment: screen of hybridoma conditioned media

Measured: binding

B1: VAB 16F3-1 (antibody, V domains shown)
VH: QVQLVQSGAEVKKPGASVKVSCKASGYTFNSYGISWVRQAPGQGLEWMGWIRTYNGNTNYAQKLQGRVTMTTDTSTSTAYMELRSLRSDDTAVYYCARDEARIVVAGTTPYYYGMDVWGQGTTVTVSS
VL: DIQMTQSPSSVSASVGDRVTITCRASQDISIWLAWYQQSPGKAPKLLINVASRLQSGVPSRFSGSGSGTDFTLTINSLQPEDFVTYYCQQANSFPITFGQGTRLATK
binds: all assays above
